Measurements reported in paper PMC11266579.
Like-named read-outs stand apart in the source and are kept apart here. Results are given in words; binding and its absence hold for the method and conditions named. In cells and extracts the contact can be indirect. These calls come from enrichment with a bait or labelling near it, and not all partners need be listed.

By UniProt entry, the sequences of proteins in these tests, tags left out.
UniProt O60566: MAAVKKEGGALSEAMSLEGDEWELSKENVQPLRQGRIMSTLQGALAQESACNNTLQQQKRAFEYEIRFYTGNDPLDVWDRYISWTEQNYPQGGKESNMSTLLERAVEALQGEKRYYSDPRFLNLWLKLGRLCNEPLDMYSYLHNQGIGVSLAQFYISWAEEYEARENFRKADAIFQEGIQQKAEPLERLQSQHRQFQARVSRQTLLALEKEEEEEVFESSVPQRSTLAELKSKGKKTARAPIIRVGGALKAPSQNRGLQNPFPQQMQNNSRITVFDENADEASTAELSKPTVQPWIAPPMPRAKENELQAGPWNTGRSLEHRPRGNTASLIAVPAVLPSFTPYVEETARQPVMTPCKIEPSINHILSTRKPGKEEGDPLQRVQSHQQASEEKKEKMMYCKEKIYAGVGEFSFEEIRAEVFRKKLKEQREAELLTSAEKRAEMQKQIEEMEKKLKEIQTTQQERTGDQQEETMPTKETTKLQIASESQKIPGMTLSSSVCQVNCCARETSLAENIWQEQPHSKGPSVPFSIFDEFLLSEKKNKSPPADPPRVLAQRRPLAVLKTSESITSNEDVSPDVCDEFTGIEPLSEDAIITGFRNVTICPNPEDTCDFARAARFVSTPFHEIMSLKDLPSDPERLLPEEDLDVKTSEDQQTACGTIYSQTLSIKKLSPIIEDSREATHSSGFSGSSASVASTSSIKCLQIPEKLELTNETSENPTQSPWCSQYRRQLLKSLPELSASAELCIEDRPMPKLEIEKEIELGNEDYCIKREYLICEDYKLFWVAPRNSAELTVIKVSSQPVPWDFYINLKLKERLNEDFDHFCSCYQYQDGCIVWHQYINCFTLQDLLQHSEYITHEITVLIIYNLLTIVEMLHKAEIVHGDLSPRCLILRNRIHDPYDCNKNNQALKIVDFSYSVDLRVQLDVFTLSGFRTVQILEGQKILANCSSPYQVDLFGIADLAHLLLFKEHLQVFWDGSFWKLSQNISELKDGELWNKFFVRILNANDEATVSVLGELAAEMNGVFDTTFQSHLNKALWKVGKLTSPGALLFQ
UniProt Q5T2D3: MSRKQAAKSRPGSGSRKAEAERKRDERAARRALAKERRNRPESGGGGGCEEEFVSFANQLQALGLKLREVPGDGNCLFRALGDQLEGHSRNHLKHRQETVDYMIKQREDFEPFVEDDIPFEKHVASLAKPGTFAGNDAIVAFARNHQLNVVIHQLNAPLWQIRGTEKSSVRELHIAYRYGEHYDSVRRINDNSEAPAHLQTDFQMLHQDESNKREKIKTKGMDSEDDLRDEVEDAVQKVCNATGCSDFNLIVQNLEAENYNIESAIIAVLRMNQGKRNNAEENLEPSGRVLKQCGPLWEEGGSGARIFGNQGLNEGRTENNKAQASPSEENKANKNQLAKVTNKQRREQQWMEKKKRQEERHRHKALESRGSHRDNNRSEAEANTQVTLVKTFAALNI

What was measured:
Assay in all cases: affinity purification with mass spectrometry; lysates of A549 and H460-BUB1b cells (2 × 10^7, IP lysis buffer), 2.5 μg anti-BUB1b or anti-IgG overnight at 4 °C, protein A/G beads 6 h at 4 °C, washed three times with PBS, LC/MS of the immunoprecipitated complexes
[1] = target: BUB1 mitotic checkpoint serine/threonine kinase B (BUB1b), endogenous in A549 cells (human (endogenous in A549)) (UniProt O60566)
[2] = target: BUB1b overexpressed by lentivirus in H460 cells (H460-BUB1b) (UniProt O60566)
[3] = target: BUB1 mitotic checkpoint serine/threonine kinase B (BUB1b), endogenous in A549 cells (human (endogenous in A549)) (UniProt O60566); remark: listed apart in the source
[4] = target: BUB1b overexpressed by lentivirus in H460 cells (H460-BUB1b) (UniProt O60566); remark: listed apart in the source

binding [1]	binding [2]	binding [3]	binding [4]	Molecule
binds	binds	–	–	OTUD3 (from UniProt Q5T2D3 1-398) (enzyme)
–	–	binds	binds	NRF2 (protein, UniProt Q16236 1-605) MMDLELPPPGLPSQQDMDLIDILWRQDIDLGVSREVFDFSQRRKEYELEKQKKLEKERQEQLQKEQEKAFFAQLQLDEETGEFLPIQPAQHIQSETSGSANYSQVAHIPKSDALYFDDCMQLLAQTFPFVDDNEVSSATFQSLVPDIPGHIESPVFIATNQAQSPETSVAQVAPVDLDGMQQDIEQVWEELLSIPELQCLNIENDKLVETTMVPSPEAKLTEVDNYHFYSSIPSMEKEVGNCSPHFLNAFEDSFSSILSTEDPNQLTVNSLNSDATVNTDFGDEFYSAFIAEPSISNSMPSPATLSHSLSELLNGPIDVSDLSLCKAFNQNHPESTAEFNDSDSGISLNTSPSVASPEHSVESSSYGDTLLGLSDSEVEELDSAPGSVKQNGPKTPVHSSGDMVQPLSPSQGQSTHVHDAQCENTPEKELPVSPGHRKTPFTKDKHSSRLEAHLTRDELRAKALHIPFPVEKIINLPVVDFNEMMSKEQFNEAQLALIRDIRRRGKNKVAAQNCRKRKLENIVELEQDLDHLKDEKEKLLKEKGENDKSLHLLKKQLSTLYLEVFSMLRDEDGKPYSPSEYSLQQTRDGNVFLVPKSKKPDVKKN
